Measurements published in paper PMC8491023.

Key:
[1] = target: T1, PAD4 (split luciferase construct) (Arabidopsis thaliana) (UniProt Q9S745); assay: split reporter; split luciferase complementation (SLC) assay in N. benthamiana; Nluc and Cluc fusions co-expressed
T1 sequence: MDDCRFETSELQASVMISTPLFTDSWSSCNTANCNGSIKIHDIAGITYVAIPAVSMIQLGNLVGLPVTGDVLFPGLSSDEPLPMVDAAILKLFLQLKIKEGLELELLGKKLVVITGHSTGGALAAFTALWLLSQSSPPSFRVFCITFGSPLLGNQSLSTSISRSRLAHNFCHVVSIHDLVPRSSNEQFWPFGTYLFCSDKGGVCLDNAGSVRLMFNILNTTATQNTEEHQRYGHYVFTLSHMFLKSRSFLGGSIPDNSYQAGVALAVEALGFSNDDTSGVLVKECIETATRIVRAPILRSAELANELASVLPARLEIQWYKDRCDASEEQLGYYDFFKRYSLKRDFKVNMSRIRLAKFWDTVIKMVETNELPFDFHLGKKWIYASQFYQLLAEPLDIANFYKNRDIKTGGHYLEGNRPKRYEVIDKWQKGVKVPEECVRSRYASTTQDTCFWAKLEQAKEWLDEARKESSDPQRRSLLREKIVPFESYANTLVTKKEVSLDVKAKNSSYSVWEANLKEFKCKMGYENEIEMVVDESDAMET

[2] = target: T2, EDS1-Cluc (Arabidopsis thaliana) (UniProt Q9SU72); assay: as above
T2 sequence: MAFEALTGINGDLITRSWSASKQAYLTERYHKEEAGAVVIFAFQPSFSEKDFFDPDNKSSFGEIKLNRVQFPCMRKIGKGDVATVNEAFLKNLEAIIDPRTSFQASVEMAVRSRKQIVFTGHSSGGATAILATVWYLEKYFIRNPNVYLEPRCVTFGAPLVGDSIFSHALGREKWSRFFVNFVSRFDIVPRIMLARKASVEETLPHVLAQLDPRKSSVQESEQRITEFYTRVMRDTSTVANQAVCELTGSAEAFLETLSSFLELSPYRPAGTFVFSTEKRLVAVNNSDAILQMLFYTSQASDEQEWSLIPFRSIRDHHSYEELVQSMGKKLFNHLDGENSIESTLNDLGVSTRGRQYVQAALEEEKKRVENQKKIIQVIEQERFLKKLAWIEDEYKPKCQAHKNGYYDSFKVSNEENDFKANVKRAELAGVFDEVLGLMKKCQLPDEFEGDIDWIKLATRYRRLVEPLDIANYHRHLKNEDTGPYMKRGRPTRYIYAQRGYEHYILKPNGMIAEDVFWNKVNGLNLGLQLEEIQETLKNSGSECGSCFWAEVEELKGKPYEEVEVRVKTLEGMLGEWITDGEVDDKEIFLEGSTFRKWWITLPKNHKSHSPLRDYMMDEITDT

[3] = target: T2, EDS1-Cluc (Arabidopsis thaliana); assay: split reporter; split luciferase complementation with EDS1-Cluc and ADR1-L1-Nluc co-expressed, with or without addition of HA-TurboID-ADR1(1C) (Supplemental Figure S9, B and C)

Measured: binding

ADR1-L1-Nluc (Arabidopsis thaliana) (receptor)
binds: all assays above

These are yes or no findings as the source states them, for the method shown. In cells and extracts the contact can be indirect. Binding calls can cover weak binding; strength is not graded here. Tags and fused reporters may be left off the sequences shown.
